Experimental data from PubChem BioAssay AID2685 (National Center for Advancing Translational Sciences (NCATS), 2010).
Hit rate of the full screen: of about 320,000 compounds, about 2,100 (0.66%) were called active. The shares of active, inactive and inconclusive entries below differ from those in the screen. Calls come from the whole dose curve; as a rule, active = well fitted inhibition curve with a large enough effect in the signal ratio, with a control signal flat (not every such curve was filed as active); inconclusive = small, poorly fitted or top-dose-only effect, or effect the other way, or a change in a side signal; inactive = flat fitted curve, though single readings scatter; the % refers to the signal ratio. Where the call is inconclusive, the potency comes from a doubtful curve fit.

Assay: qHTS Assay for Lipid Storage Modulators in Drosophila S3 Cells
Details: BODIPY lipid droplet fluorescence, 18-24 h, cells fed with added oleic acid; lipid storage change, negative = inhibition: at 46.1 µM (top of the series) unless noted
Summary of the method: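 Drosophila S3 cells loaded with oleic acid (400 uM, as added) and compounds at several concentrations; lipid droplets imaged by 488-nm laser-scanning cytometry, 500–530 nm intensity and object ratio to cell channel. Percent activity normalized to 20 uM Triacsin C.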
% is set by controls: 0 for no effect and ±100 for the full control effect; potency is the fitted concentration of half-maximal effect.

Row | Structure (SMILES) | Potency | lipid storage change, negative = inhibition
1 | N#Cc1c(-c2ccccc2)cc(-c2ccccc2)[nH]c1=O | inconclusive: 0.58 µM [activator, single point] | 
2 | O=[N+]([O-])c1ccccc1/C=N\N1CCN(c2ccccc2)CC1 |  | inactive
3 | CC(CCC(=O)Nc1nncs1)C(=O)O (centres undefined) |  | inconclusive: -38%
4 | COc1cc(/C=N/NC(=O)c2nonc2C)ccc1O | inconclusive: 1.16 µM [falling, single point] | 
5 | O=C(NC(=S)NCC1CCCO1)c1ccc(Br)o1 (centres undefined) |  | inconclusive: 9.62%
6 | CCOc1ccc2[nH]c3c(NCCOC)ncnc3c2c1 |  | inconclusive: 18.7%
7 | Cc1nc2cc(NC(=O)N3c4ccccc4CC3C)ccc2n1C (centres undefined) | inconclusive: 1.3 µM [activator, full curve] | 
8 | Cc1cc(=O)oc2c3c(cc(OCC(=O)Nc4ccc(CCO)cc4)c12)OC(C)(C)CC3 | inconclusive: 23.1 µM [falling, single point] | 
9 | O=C(N/N=C/c1ccc(Br)o1)c1ccc2c(c1)OCCO2 |  | inconclusive: 1.01%
10 | NC(=O)c1ccsc1NC(=O)COC(=O)c1ccccc1F |  | inconclusive: 11.9%
11 | O=C1C=C(c2ccc(O)cc2)C[C@@H](c2ccc3c(c2)OCO3)C1 | inconclusive: 1.16 µM [activator, single point] | 
12 | CC1CCC(C(C)C)C(OC(=O)COC(=O)c2cccn2C)C1 (centres undefined) |  | inconclusive: -6.61%
13 | O=C(CCl)Nc1ccc(Sc2ccc(NC(=O)CCl)cc2)cc1 | inconclusive: 0.326 µM [falling, full curve, poor fit] | 
14 | O=S(=O)(c1cccc(COc2ccc(Cl)cc2Cl)c1)N1CCOCC1 | inconclusive: 29.1 µM [falling, single point] | 
15 | C/C(=N\NC(=O)c1ccc(-c2ccccc2)cc1)C1C(=O)c2ccccc2C1=O |  | inactive
16 | COC(=O)C1=CN(c2ccc(OC)cc2)C=C(C(=O)OC)C1c1ccc([N+](=O)[O-])cc1 |  | inconclusive: -11.8%
17 | Cc1occc1C(=O)Nc1ccccc1C#N |  | inconclusive: -28.8%
18 | COc1cc([N+](=O)[O-])ccc1NC(=O)CC(C)C |  | inconclusive: 8.51%
19 | CC(NC(=O)/C(C#N)=C/c1cccs1)c1ccccc1 (centres undefined) |  | inconclusive: 45.6%
20 | Cc1cc(NC(=O)C2CCN(S(=O)(=O)c3c(C)noc3C)CC2)ccc1Br |  | inconclusive: 31.4%
21 | CCCN1CCN(CCCNC(=O)c2ccc3nc(N4CCC(C)CC4)sc3c2)CC1 |  | inactive
22 | CC(=O)Oc1ccc2nc(-c3ccc(Br)o3)oc(=O)c2c1 |  | inconclusive: -6.77%
23 | CCC(NC(=O)NC1=NCCS1)(C(F)(F)F)C(F)(F)F | inconclusive: 23.1 µM [falling, single point] | 
24 | CCOC(=O)C1=C(COC(=O)CCOc2cccc(C)c2)NC(=O)NC1C (centres undefined) |  | inconclusive: -12.5%
25 | COc1cccc(CC2(CO)CCN(S(=O)(=O)c3ccc(OC)cc3OC)CC2)c1 |  | inconclusive: 234%
26 | O=C1COc2ccc(S(=O)(=O)N3CCCCC3)cc2N1 |  | inconclusive: 131%
27 | CCc1cc2c(=O)nc3n(c2s1)Cc1ccccc1/C3=C(/O)c1ccccc1Cl | inconclusive: 3.66 µM [activator, partial curve] | 

Row | Structure (SMILES) | Potency | lipid storage change, negative = inhibition
28 | CCc1nnc2n1N=C(c1cccc([N+](=O)[O-])c1)CS2 |  | inconclusive: 12.6%
29 | CCOC(=O)c1c(NC(=O)CS(=O)(=O)c2cn(CC)c3ccccc23)sc2c1CCCCC2 |  | inconclusive: 26.2%
30 | O=C(Nc1ccc(F)cc1)N1CCN(c2ccc(F)cc2)CC1 |  | inconclusive: 23.1%
31 | Cc1cccc(C(=O)Nc2cccc(OCC(=O)O)c2)c1 |  | inconclusive: -34%
32 | Cc1sc(NC(=O)CSc2nnc(COc3ccc(Cl)cc3)n2C)c(C#N)c1C | inconclusive: 29.1 µM [falling, single point] | 
33 | CCOc1cnn(-c2cc(Oc3ccc(C)cc3)ncn2)c(=O)c1Cl | inconclusive: 0.326 µM [falling, partial curve] | 
34 | CC(=O)c1cccc(NC(=O)c2sc3nc4n(c(=O)c3c2C)CCCC4)c1 |  | inconclusive: -87.6%
35 | Cc1cc(C)c(S(=O)(=O)NCC(CCC(=O)O)C(F)(F)F)c(C)c1 (centres undefined) |  | inconclusive: 4.86%
36 | Cc1cc2c(s1)c(C=O)c(C(=O)NCc1ccccc1F)n2C |  | inconclusive: 31.1%
37 | O=C(Nc1cc(-c2ccccc2)sc1C(=O)O)c1cccc(F)c1 |  | inconclusive: 22.3%
38 | N#CC1=C(N)Oc2c(oc(CO)cc2=O)C1c1ccsc1 (centres undefined) | inconclusive: 6.51 µM [activator, single point] | 
39 | COc1ccc(CNC(=O)COC(=O)C2CCC(C(C)(C)C)CC2)cc1 (centres undefined) | inconclusive: 5.8 µM [falling, partial curve, poor fit] | 
40 | Cc1sc2ccccc2[n+]1CC(=O)c1ccccc1 | inconclusive: 29.1 µM [activator, single point] | 
41 | COc1ccc(C)cc1NC(=O)CSc1nnc(-c2ccc(Br)cc2)o1 |  | inconclusive: 132%
42 | CCc1ccccc1NC(=O)CN1CCN(CC(=O)NCc2ccc(Cl)cc2)CC1 |  | inconclusive: 14.2%
43 | C/C(=N\Nc1nnc(-c2ccccc2)c(-c2ccccc2)n1)c1cccc([N+](=O)[O-])c1 |  | inconclusive: 6.67%
44 | CC(Sc1nnc(-c2ccccc2F)n1N)C(=O)NCC1CCCO1 (centres undefined) | inconclusive: 4.11 µM [rising, full curve, poor fit] | 
45 | CCOC(=O)c1cnn(-c2nc(-c3cccc(F)c3)cs2)c1C(F)(F)F |  | inconclusive: 23%
46 | CC(C(=O)NC(c1ccccc1)c1ccccc1)N1CCOCC1 (centres undefined) |  | inconclusive: 71.1%
47 | COc1ccc2[nH]c3c(Cl)ncnc3c2c1 |  | inconclusive: -15.2%
48 | Cc1ccsc1CN(C)CC(=O)NCC(=O)Nc1ccc(F)cc1 |  | inconclusive: 30.4%
49 | O=C(NC1CC2CCCC(C1)N2C(=O)N1CCCCC1)C1CCCCC1 (centres undefined) | inconclusive: 4.11 µM [falling, partial curve, poor fit] | 
50 | CC(=O)Nc1ccc(S(=O)(=O)N[C@@H](C)C(=O)N(C)Cc2cccs2)cc1 |  | inconclusive: -5.87%
51 | COc1cccc(C(=O)N(Cc2nc(-c3cccc(C)c3)no2)C(C)C)c1OC | active: 18.4 µM | 
52 | COc1ccc(OCC(O)CNC(=O)/C=C/c2cccc([N+](=O)[O-])c2)cc1 (centres undefined) |  | inconclusive: 26%
53 | COc1cccc(-c2ccc(C#N)c(SCC(=O)NCCc3ccc(Cl)cc3)n2)c1 |  | inconclusive: -11.7%
54 | O=C(NCCC1=CCCCC1)C1CCN(C(=O)c2ccc(Cl)cc2)CC1 |  | inconclusive: -16.6%

Row | Structure (SMILES) | Potency | lipid storage change, negative = inhibition
55 | NC(=O)CN1CCN(C(=O)NC2CCCCC2)CC1 |  | inconclusive: -41.5%
56 | Cc1noc(C)c1COC(=O)c1ccccc1Oc1ccccc1 | inconclusive: 2.31 µM [rising, single point] | 
57 | CCCn1c(=O)c2ccccc2n2c(SCc3nnc(-c4ccccc4Br)o3)nnc12 |  | inconclusive: 14.6%
58 | CC(C)(C)c1ccc(C(=O)Nc2ccc(CC(=O)O)cc2)o1 |  | inconclusive: 0.602%
59 | CCOc1ccc(-n2c(=S)sc3c(=O)[nH]c(SCC(=O)NCc4ccco4)nc32)cc1 |  | inconclusive: 0.987%
60 | COc1ccc(/C=C(\NC(=O)c2ccco2)C(=O)NCc2ccco2)cc1 |  | inconclusive: -6.05%
61 | Cn1cc(CN2CCC(n3nccc3NC(=O)CCOc3ccccc3)CC2)cn1 | inconclusive: 0.0052 µM [falling, full curve, poor fit] | 
62 | COc1ccc(C(=O)Cn2c(NCCCO)nc3ccccc32)cc1OC |  | inconclusive: 20.6%
63 | Cc1ccc(C(C)C)c(OCC(O)CNC2CCCC2)c1 (centres undefined) |  | inconclusive: -79.9%
64 | O=S1(=O)CC/C(=N/Nc2ccc(C(F)(F)F)cn2)c2cc(F)ccc21 |  | inconclusive: 41.7%
65 | CC(Sc1nnc(-c2ccco2)n1N)C(=O)NCc1ccc2c(c1)OCO2 (centres undefined) |  | inconclusive
66 | CCOC(=O)c1c(-c2ccccc2)csc1NC(=O)C(C)NCCCN1CCOCC1 (centres undefined) |  | inconclusive: 13.5%
67 | CCN(CC(=O)NCc1ccc(Cl)cc1)C(=O)CSc1ccccc1F | inconclusive: 18.4 µM [falling, single point] | 
68 | O=C(NC1=NCCS1)C1CC(=O)N(c2ccc(F)cc2)C1 (centres undefined) |  | inconclusive: -17.7%
69 | Cn1c(CC(=O)Nc2ccccc2F)nnc1SCC(=O)Nc1nncs1 |  | inconclusive: -31.5%
70 | COc1ccc(S(=O)(=O)NNC(=O)C23CC4CC(CC(C4)C2)C3)cc1[N+](=O)[O-] |  | inconclusive
71 | COc1ccc(-c2noc(COc3ccccc3OC)n2)cc1OC | inconclusive: 1.64 µM [rising, full curve, poor fit] | 
72 | CS(=O)(=O)N1CCC(C(=O)NCc2ccncc2)CC1 |  | inconclusive: -0.767%
73 | CC(NC(=O)[C@@H](NC(=O)[C@@H]1Cc2ccccc2CN1)C(C)C)c1ccccc1 (some centres undefined) | inconclusive: 29.1 µM [activator, single point] | 
74 | COc1ccc(NC(=O)c2ccccc2S(=O)c2ccccc2C#N)cc1 (centres undefined) |  | inconclusive: 20.9% [at 9.22 µM]
75 | COc1ccccc1NC(=O)c1cc2c(=O)n(C)c3ccccc3c2n1C | inconclusive: 0.366 µM [activator, full curve, poor fit] | 
76 | Fc1ccc(/C=N/Nc2nn[nH]n2)cc1 |  | inconclusive: -10.9%
77 | CC(=O)N1CCN(c2ccc(NCc3ccco3)cc2)CC1 |  | inconclusive: -15.3%
78 | CCn1cc(/C=C(\NC(=O)c2ccc(OC)c(OC)c2)C(=O)NCCN2CCOCC2)c2ccccc21 |  | inconclusive: -33%
79 | OC(C#CCN1CCOCC1)(c1ccccc1)C1CCCCC1 (centres undefined) |  | inconclusive: -14.5%

Ordered by molecular weight (falling): part of the list above.
Row | Structure (SMILES) | Potency | lipid storage change, negative = inhibition
32 | Cc1sc(NC(=O)CSc2nnc(COc3ccc(Cl)cc3)n2C)c(C#N)c1C | inconclusive: 29.1 µM [falling, single point] | 
34 | CC(=O)c1cccc(NC(=O)c2sc3nc4n(c(=O)c3c2C)CCCC4)c1 |  | inconclusive: -87.6%
75 | COc1ccccc1NC(=O)c1cc2c(=O)n(C)c3ccccc3c2n1C | inconclusive: 0.366 µM [activator, full curve, poor fit] | 
36 | Cc1cc2c(s1)c(C=O)c(C(=O)NCc1ccccc1F)n2C |  | inconclusive: 31.1%
46 | CC(C(=O)NC(c1ccccc1)c1ccccc1)N1CCOCC1 (centres undefined) |  | inconclusive: 71.1%
